The assay concerns the target T1, SEPT12-GFP (human) (UniProt Q8IYM1).
T1 sequence: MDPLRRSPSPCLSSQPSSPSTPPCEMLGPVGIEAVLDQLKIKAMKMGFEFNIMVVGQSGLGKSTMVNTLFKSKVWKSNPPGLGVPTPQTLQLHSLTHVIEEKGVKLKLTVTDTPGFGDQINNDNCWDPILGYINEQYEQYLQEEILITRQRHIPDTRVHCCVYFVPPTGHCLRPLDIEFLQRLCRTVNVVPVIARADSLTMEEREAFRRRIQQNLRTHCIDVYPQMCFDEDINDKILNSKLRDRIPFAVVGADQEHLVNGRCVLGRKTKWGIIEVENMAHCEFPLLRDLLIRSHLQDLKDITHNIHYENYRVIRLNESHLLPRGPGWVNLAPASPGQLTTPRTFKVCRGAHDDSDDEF
The assay is described as follows: co-IP; NT2D1 cells cotransfected with pFLAG-NDC1 and pGFP-SEPT12; lysates immunoprecipitated with anti-GFP antibody (control: nonspecific IgG), immunoblot with anti-FLAG and anti-GFP. Background: A western blot detects proteins with antibodies after separation by electrophoresis.

No constants are given. Whether binding was seen depends on the method and setting. Binding seen in cells or lysates may run through a third protein. Some entries that bind do so weakly or less than the wild type. Where a sequence is shown, tags or fusion partners need not be part of it.

B1: FLAG-NDC1 (protein, UniProt Q9BTX1 1-674)
chain: MATAVSRPCAGRSRDILWRVLGWRIVASIVWSVLFLPICTTVFIIFSRIDLFHPIQWLSDSFSDLYSSYVIFYFLLLSVVIIIISIFNVEFYAVVPSIPCSRLALIGKIIHPQQLMHSFIHAAMGMVMAWCAAVITQGQYSFLVVPCTGTNSFGSPAAQTCLNEYHLFFLLTGAFMGYSYSLLYFVNNMNYLPFPIIQQYKFLRFRRSLLLLVKHSCVESLFLVRNFCILYYFLGYIPKAWISTAMNLHIDEQVHRPLDTVSGLLNLSLLYHVWLCGVFLLTTWYVSWILFKIYATEAHVFPVQPPFAEGSDECLPKVLNSNPPPIIKYLALQDLMLLSQYSPSRRQEVFSLSQPGGHPHNWTAISRECLNLLNGMTQKLILYQEAAATNGRVSSSYPVEPKKLNSPEETAFQTPKSSQMPRPSVPPLVKTSLFSSKLSTPDVVSPFGTPFGSSVMNRMAGIFDVNTCYGSPQSPQLIRRGPRLWTSASDQQMTEFSNPSPSTSISAEGKTMRQPSVIYSWIQNKREQIKNFLSKRVLIMYFFSKHPEASIQAVFSDAQMHIWALEGLSHLVAASFTEDRFGVVQTTLPAILNTLLTLQEAVDKYFKLPHASSKPPRISGSLVDTSYKTLRFAFRASLKTAIYRITTTFGEHLNAVQASAEHQKRLQQFLEFKE
B1: the binding result was “binds”.
